Article PMC4868969
No constants are given. Whether binding was seen depends on the method and setting. Binding seen in cells or lysates may run through a third protein. Some binding calls cover weakened binding; strength is not graded here. Sequences can lack the tags named with a protein.

Experiments:
[1] = biological target: T1, Os8N3/Xa13-nYFP (rice (O. sativa)) (UniProt Q6YZF3); assay: split reporter; BiFC with the C-terminal and N-terminal halves of YFP, co-expressed in TP309 rice protoplasts, confocal microscopy
T1 sequence: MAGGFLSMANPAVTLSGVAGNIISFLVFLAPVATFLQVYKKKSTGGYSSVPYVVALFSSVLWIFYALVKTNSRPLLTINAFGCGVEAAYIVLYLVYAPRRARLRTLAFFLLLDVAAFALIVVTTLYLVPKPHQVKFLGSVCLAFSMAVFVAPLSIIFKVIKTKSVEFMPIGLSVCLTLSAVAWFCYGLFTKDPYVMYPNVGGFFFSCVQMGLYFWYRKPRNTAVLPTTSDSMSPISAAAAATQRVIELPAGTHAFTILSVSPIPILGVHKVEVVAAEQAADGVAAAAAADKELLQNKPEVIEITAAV

[2] = biological target: T2, 3xFLAG-Xa13/Os8N3 (35S::Os8N3-3x flag) (rice (O. sativa)) (UniProt Q6YZF3); assay: co-IP; rice protoplasts co-expressing FLAG-tagged Os8N3 and YFP-tagged OsAPX8 constructs; immunoprecipitation with anti-FLAG agarose, blot with anti-GFP and anti-FLAG
T2 sequence: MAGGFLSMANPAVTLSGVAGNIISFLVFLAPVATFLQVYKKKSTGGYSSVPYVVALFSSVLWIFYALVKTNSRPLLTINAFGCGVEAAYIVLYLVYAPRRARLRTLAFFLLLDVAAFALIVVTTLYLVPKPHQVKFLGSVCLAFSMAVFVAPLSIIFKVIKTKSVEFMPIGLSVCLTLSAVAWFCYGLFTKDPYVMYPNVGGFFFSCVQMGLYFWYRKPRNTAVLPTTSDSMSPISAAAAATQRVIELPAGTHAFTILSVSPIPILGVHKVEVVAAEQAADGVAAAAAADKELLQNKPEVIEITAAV

B1: OsAPX8-cYFP (enzyme, UniProt Q69SV0 77-478)
chain: CMAAAAVAASDAAQLKSAREDIREILKTTYCHPIMVRLGWHDSGTYDKNIEEWPQRGGADGSLRFDAELSHGANAGLINALKLIQPIKDKYPGITYADLFQLASATAIEEAGGPKIPMKYGRVDVTAAEQCPPEGRLPDAGPRVPADHLREVFYRMGLDDKEIVALSGAHTLGRSRPDRSGWGKPETKYTKDGPGEPGGQSWTVEWLKFDNSYFKDIKEQRDQDLLVLPTDAALFEDPSFKVYAEKYAEDQEAFFKDYAEAHAKLSDLGAKFDPPEGFSLDDEPAVEEKDPEPAPAPAAAPPPPPVEEKKEAEPTPVPVTVGAAVASSPADDNNGAAPQPEPFVAAKYSYGKKELSDSMKQKIRAEYEGFGGSPDKPLQSNYFLNIMLLIGGLAFLTSLLGS
In the case of B1, the binding [1] is reported as “binds”.

B2: OsAPX8-YFP (35S::OsAPX8-YFP, full length) (enzyme, UniProt Q69SV0 77-478)
chain: CMAAAAVAASDAAQLKSAREDIREILKTTYCHPIMVRLGWHDSGTYDKNIEEWPQRGGADGSLRFDAELSHGANAGLINALKLIQPIKDKYPGITYADLFQLASATAIEEAGGPKIPMKYGRVDVTAAEQCPPEGRLPDAGPRVPADHLREVFYRMGLDDKEIVALSGAHTLGRSRPDRSGWGKPETKYTKDGPGEPGGQSWTVEWLKFDNSYFKDIKEQRDQDLLVLPTDAALFEDPSFKVYAEKYAEDQEAFFKDYAEAHAKLSDLGAKFDPPEGFSLDDEPAVEEKDPEPAPAPAAAPPPPPVEEKKEAEPTPVPVTVGAAVASSPADDNNGAAPQPEPFVAAKYSYGKKELSDSMKQKIRAEYEGFGGSPDKPLQSNYFLNIMLLIGGLAFLTSLLGS
With B2 the binding [2] was “binds”.

B3: OsAPX8_(1-326)-YFP (domain or fragment, UniProt Q69SV0 77-326)
chain: CMAAAAVAASDAAQLKSAREDIREILKTTYCHPIMVRLGWHDSGTYDKNIEEWPQRGGADGSLRFDAELSHGANAGLINALKLIQPIKDKYPGITYADLFQLASATAIEEAGGPKIPMKYGRVDVTAAEQCPPEGRLPDAGPRVPADHLREVFYRMGLDDKEIVALSGAHTLGRSRPDRSGWGKPETKYTKDGPGEPGGQSWTVEWLKFDNSYFKDIKEQRDQDLLVLPTDAALFEDPSFKVYAEKYAED
In the case of B3, the binding [2] is reported as “no binding”.
